According to US20200299375A1:
Where a chain is given by its changes, count along the chain named. No constants are given. Whether binding was seen depends on the method and setting.

T1: recombinant human TNFβ (human) (UniProt P01374)
T1 sequence (looked up): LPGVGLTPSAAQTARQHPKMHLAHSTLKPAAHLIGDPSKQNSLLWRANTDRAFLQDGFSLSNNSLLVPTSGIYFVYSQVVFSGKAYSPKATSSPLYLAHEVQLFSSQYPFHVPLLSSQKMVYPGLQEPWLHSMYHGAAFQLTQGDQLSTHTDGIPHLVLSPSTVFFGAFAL

B1: 17-22-B03-sc02 (scFv)
scFv: MDIQMTQSPSSLSASVGDRVTIKCQASQSISSYLAWYQQKPGKAPKLLIYKASTLASGVPSRFSGSGSGTEFTLTISDLEPADFATYYCQCTYYEPSYVFRAFGGGTKLTVLGGGGGSGGGGSGGGGSGGGGSEVQLVESGGGLVQPGGSLRLSCKASGIDFSAGYDMCWVRQAPGKGLEWIACIDSRREESDYASWAKGRFTISKDSSKNTVYLQMNSLRAEDTAVYYCARGGYGGDGVDGAFDPWGQGTLVTVSS
B2: 17-22-B03-sc12 (scFv)
scFv: B1 scFv with K23T, E71D, D78S, E80Q, A82E, C91S
B3: 17-22-B03-sc08 (scFv)
scFv: B1 scFv with K23T, E71D, D78S, E80Q, A82E

molecular target: T1, recombinant human TNFβ (human); experiment: competition ELISA, coated scFv, biotinylated TNFα, unlabeled TNFβ as competitor

binding	Binder
no binding (tested: 1250 µg/mL)	B1
no binding (tested: 1250 µg/mL)	B2
no binding (tested: 1250 µg/mL)	B3
